Paper PMC7055376, “Evidence for binary Smc complexes lacking kite subunits in archaea” (IUCrJ, 2020)
No constants are given. Whether binding was seen depends on the method and setting. For some of these results: Binding can be weak; no strength is given. Where a sequence is shown, tags or fusion partners need not be part of it.

Tests used:
[1] = molecular target: T1, (His)10-MBP-tagged Methanothrix soehngenii ScpA (Methanothrix soehngenii) (UniProt F4BYM3); assay: SEC; mixture of (His)10-MBP-tagged ScpA and ScpB homologue on Superdex 200 Increase 10/300 GL; 20 mM Tris-HCl pH 7.5, 100 mM NaCl, 1 mM DTT, 4°C; 10 µM each in 100 µl; both purified
T1 sequence: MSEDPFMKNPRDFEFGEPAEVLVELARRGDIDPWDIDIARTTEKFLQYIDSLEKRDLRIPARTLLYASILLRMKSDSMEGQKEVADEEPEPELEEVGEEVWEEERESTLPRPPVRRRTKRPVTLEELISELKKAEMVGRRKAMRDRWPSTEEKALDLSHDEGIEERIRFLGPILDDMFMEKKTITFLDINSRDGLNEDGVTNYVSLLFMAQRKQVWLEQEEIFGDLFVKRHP

[2] = molecular target: T1, (His)10-MBP-tagged Methanothrix soehngenii ScpA (Methanothrix soehngenii); assay: pull-down; (His)10 pull-down on Ni-NTA resin; (His)10-MBP-tagged ScpA held, untagged putative ScpB, 1 µM each; 20 mM Tris-HCl pH 7.5, 100 mM NaCl, 25°C, 10 min; wash with 30 mM imidazole; denaturing PAGE; both purified
[3] = molecular target: T2, (His)10-GST-tagged B. subtilis ScpA^N (BsScpA^N) (Bacillus subtilis) (UniProt P35154); assay: pull-down; (His)10 pull-down on Ni-NTA resin; (His)10-GST-ScpA^N held, SmcHd-CC in a 1:1 molar ratio (20 µM); wash with 30 mM imidazole; SDS-PAGE; both purified
T2 sequence: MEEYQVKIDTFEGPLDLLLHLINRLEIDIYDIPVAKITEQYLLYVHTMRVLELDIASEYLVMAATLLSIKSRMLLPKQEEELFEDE

[4] = molecular target: (His)10-MBP-tagged Methanofollis liminatans ScpA (MlScpA) (Methanofollis liminatans); assay: pull-down; (His)10 pull-down on Ni-NTA resin; (His)10-MBP-tagged ScpA held, untagged putative ScpB, 1 µM each; 20 mM Tris-HCl pH 7.5, 100 mM NaCl, 25°C, 10 min; wash with 30 mM imidazole; denaturing PAGE; both purified
[5] = molecular target: (His)10-MBP-tagged Methanofollis liminatans ScpA (MlScpA) (Methanofollis liminatans); assay: SEC; mixture of (His)10-MBP-tagged ScpA and ScpB homologue on Superdex 200 Increase 10/300 GL; 20 mM Tris-HCl pH 7.5, 100 mM NaCl, 1 mM DTT, 4°C; 10 µM each in 100 µl; both purified
[6] = molecular target: (His)10-MBP-tagged Methanosalsum zhilinae ScpA (Methanosalsum zhilinae); assay: pull-down; (His)10 pull-down on Ni-NTA resin; (His)10-MBP-tagged ScpA held, untagged putative ScpB, 1 µM each; 20 mM Tris-HCl pH 7.5, 100 mM NaCl, 25°C, 10 min; wash with 30 mM imidazole; denaturing PAGE; both purified
[7] = molecular target: (His)10-MBP-tagged Methanosalsum zhilinae ScpA (Methanosalsum zhilinae); assay: SEC; mixture of (His)10-MBP-tagged ScpA and ScpB homologue on Superdex 200 Increase 10/300 GL; 20 mM Tris-HCl pH 7.5, 100 mM NaCl, 1 mM DTT, 4°C; 10 µM each in 100 µl; both purified

Molecule: MCON_2432 (putative Methanothrix soehngenii ScpB), untagged
- binding [1]: no binding (tested: 10 µM each)
- binding [2]: no binding (tested: 1 µM each)

Molecule: B. subtilis Smc head domain with a 30-residue coiled-coil stretch (BsSmcHd-CC30) (Bacillus subtilis) (domain or fragment)
- binding [3]: binds

B1: Metli_0606 (sole ScpB homologue of Methanofollis liminatans), untagged (natural protein, UniProt J1ANV5 1-161, looked up)
chain: MVDRTAMLEAALFVADAPVSYGDLAKIFGIKPGEVPALAQELSGRLSARSSPLEVIDSGESVFMVLKEEYAVLVYPVMRPEISRAVLRTLSVIAYRQPILQSDLIEIRGGGAYAHVEELVKRDLVARYRSGRSYLLQTTPEFSRYFKTSDLVGGQGRLDID
notes: ScpB homologue Metli_0606 of Methanofollis liminatans; untagged in the assays; also called ScpB homologue Metli_0606; source: E. coli BL21 (DE3) RIPL, purified
- binding [4]: no binding (tested: 1 µM each)
- binding [5]: no binding (tested: 10 µM each)

B2: Mzhil_1996 (putative Methanosalsum zhilinae ScpB), untagged (protein, UniProt F7XKW0 1-364)
chain: MNHKEIVEAALFVAGDGVNIKSLAKIVNIPEKNVIDTVRSLMEEYSSRETGLEIVETGEKRYVMQVKPRYSDIVSRLAPGEIKSPVLRTLSMIAYHQPIAQSELVDIRGNSVYEHIRELKDRGLVNAAPHGRTRILQTTPLFAEYFGIDSNDPESIRKKIIELSRKQSGSVGLDRWLGRRVVAITPMYESLMEMCGIEDYRVLNVYSPDEDELDSLADVYRLIVSRGYSEQVSRYYDGEIIEIGSTTFNDLIDSIQSLEDIYDSDKARESIEKIKELRERYVSKAMVIDRKVKPATDMISRIVSDLHIGVSSTGVVIAPDYGVSSNGVDVSHDARILVPTHEKEGSLIERVCRKYDAVIDGLKE
- binding [6]: no binding (tested: 1 µM each)
- binding [7]: no binding (tested: 10 µM each)
